This note sets out measurements from US20080058297A1, “Heterocyclic Compounds For Preventing And Treating Disorders Associated With Excessive Bone Loss” (Synta Pharmaceuticals Corp., priority 2003, published 2008).

For the test, the system named is Human peripheral blood mononuclear cells (PBMC). Description: Inhibition of osteoclast formation (RANKL/M-CSF induced, TRAP staining). The note with it: 96 h, Table 1, 20 ng/ml RANKL + 10 ng/ml M-CSF, TRAP-positive cells with more than 3 nuclei, read-out: IC50 (compound concentration required for 50% inhibition of osteoclast formation). In kind it is cell-based. The method, then:
(§1) Human peripheral blood mononuclear cells (PBMC) were isolated from healthy donor blood. The cells were seeded in multi-well plates at 7.5×10^5 cells/ml in RPMI 1640 medium including 10% FBS. Osteoclast formation was induced with 20 ng/ml of recombinant human receptor activator of NF-kB-ligand (RANKL) and 10 ng/ml of human M-CSF in the presence of various doses of test compounds. After 48 hours of culture, RANKL and M-CSF was replenished and further cultured for 2 days. Then, the cultured cells were stained for tartrate-resistant acid phosphatase (TRAP). Osteoclasts were identified as TRAP-positive cells with more than 3 nuclei. Total cell viability was assessed by CCK-8 assay (Dojindo, Gaithersburg, Md.) with 24 hour incubation.
as §1, with “Isolated” for “isolated”, “Osteoclasts were identified as TRAP-positive cells with more than 3 nuclei.” left out

Each structure is given as a SMILES string. pIC50: −log10 of the molar value.

In the case of `CC/C(=C(\c1ccccc1)c1ccc(OCCN(C)C)cc1)c1ccccc1` [Tamoxifen, reference compound], the pIC50 was 6.32.
